Assay results: the supplement of paper PMC12009310
Structures can show the parent of a compound that is named as a salt. ± gives the standard deviation of the averaged measurements. The list shows a part of the results. Baselines shift from plate to plate; read single values as rough.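 The cells are a mouse kidney inner medullary collecting duct line, silenced either for the ciliary gene Rpgrip1l or with a non-targeting control siRNA.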

Legend:
mIMCD3 [1] = assay: robust z score of cell number vs plate controls; higher = more cells (less cytotoxic); details: 10 µM, 48 h
mIMCD3 [2] = assay: robust z score of cilia incidence (% cells with single cilium) vs plate controls; higher = more ciliated cells; details: 10 µM; 48 h; siRNA: siScr
mIMCD3 [3] = assay: robust z score of cilia incidence (% cells with single cilium) vs plate controls; higher = more ciliated cells (rescue of cilia loss); details: 10 µM; 48 h; siRNA: siRpgrip1l

SMILES	robust z score of cell number (mIMCD3 [1]; siRNA: siRpgrip1l)	robust z score of cell number (mIMCD3 [1]; siRNA: siScr)	robust z score of cilia incidence (mIMCD3 [2])	robust z score of cilia incidence (mIMCD3 [3])
CCCCCCC(=O)OC1CC(C)(C)NC(C)(C)C1 [TMPH hydrochloride]	-12.6 ± 6.1	-14.3 ± 5	-28.1 ± 22	-27 ± 15
CN1CCC[C@@H]1CCO[C@](C)(c1ccccc1)c1ccc(Cl)cc1 [Clemastine fumarate]	-139 ± 150	-40.2 ± 9	-26.9 ± 9.2	-403 ± 240
COc1cccc(NC(=O)/C=C/c2ccc(Cl)cc2)c1	-130 ± 140	-31.2 ± 8.9	-23.6 ± 14	-455 ± 270
c1ccc2cc(C3=NCCN3)ncc2c1 [BU 226 hydrochloride]	-12.4 ± 7.7	0.77 ± 2.7	1.14 ± 1.3	-14.7 ± 0.61
O=c1ncccn1[C@@H]1O[C@H](CO)[C@@H](O)[C@H]1O [Zebularine]	-11.2 ± 5.2	-3.98 ± 0.64	-0.578 ± 1.5	-12.9 ± 9.6
CCN(CC)CCOc1ccc(Cc2ccccc2)cc1 [DPPE fumarate]	-47.3 ± 16	-35.2 ± 6	-45.8 ± 6.2	-38 ± 0.45
CC(C)(C)c1ccc(/C=C/C(=O)Nc2ccc3c(c2)OCCO3)cc1	-29.8 ± 15	-27 ± 4.7	-30.8 ± 23	-27.5 ± 13
NC(=O)Nc1sc(-c2ccc(F)cc2)cc1C(N)=O	-93.5 ± 67	-124 ± 110	-7.71 ± 1	-26.4 ± 0.3
CC1(C)C(=O)NC2=C1C(=O)C(=O)c1ccccc12	-40.8 ± 26	-54 ± 28	-30.9 ± 16	-56.2 ± 8
CN1CC2c3ccccc3Oc3ccc(Cl)cc3C2C1 (centres undefined) [Asenapine maleate]	-7.73 ± 1.9	-18.7 ± 0.63	-13.3 ± 0.57	-16.1 ± 7.8
Oc1ccc(C2CNCCc3c2cc(O)c(O)c3Cl)cc1 (centres undefined) [Fenoldopam hydrochloride]	-13.8 ± 12	-2.69 ± 1.6	0.378 ± 0.53	-145 ± 97
C[C@@H](CN1CCC(Cc2ccccc2)CC1)[C@@H](O)c1ccc(O)cc1 [Ro 25-6981 maleate]	-126 ± 130	-35.9 ± 3.2	-42.3 ± 11	-526 ± 310
CN(C)C(=O)n1nnnc1Cc1ccc(-c2ccccc2)cc1	-29.5 ± 15	-27.3 ± 4.7	-49.6 ± 38	-34.3 ± 19
O=C(NCC1CCCCN1)c1cc(OCC(F)(F)F)ccc1OCC(F)(F)F (centres undefined) [Flecainide acetate]	-22.4 ± 29	-1.72 ± 3.9	0.503 ± 1.2	-163 ± 160
CC(C)n1nnc2cc(C(=O)O)ccc21	-1.07 ± 0.9	-4.34 ± 5.2	-1.31 ± 5.2	-8.42 ± 4.3
Cc1oncc1C(=O)Nc1ccc(C(F)(F)F)cc1 [Leflunomide]	-19.8 ± 23	-8.42 ± 0.6	2.56 ± 2.7	-12 ± 1.4

One compound at a time, as listed above. Values in the order: robust z score of cell number (mIMCD3 [1]; siRNA: siRpgrip1l)	robust z score of cell number (mIMCD3 [1]; siRNA: siScr)	robust z score of cilia incidence (mIMCD3 [2])	robust z score of cilia incidence (mIMCD3 [3])
NC(=O)Nc1sc(-c2ccc(F)cc2)cc1C(N)=O as listed: -93.5 ± 67	-124 ± 110	-7.71 ± 1	-26.4 ± 0.3
CN1CC2c3ccccc3Oc3ccc(Cl)cc3C2C1 (centres undefined) [Asenapine maleate] as listed: -7.73 ± 1.9	-18.7 ± 0.63	-13.3 ± 0.57	-16.1 ± 7.8

Carrying on:

SMILES	robust z score of cell number (mIMCD3 [1]; siRNA: siRpgrip1l)	robust z score of cell number (mIMCD3 [1]; siRNA: siScr)	robust z score of cilia incidence (mIMCD3 [2])	robust z score of cilia incidence (mIMCD3 [3])
CC(C)NCC(O)COc1cccc2ccccc12 (centres undefined) [Propranolol hydrochloride]	-4.42 ± 0.2	-5.2 ± 10	0.18 ± 0.5	-8.41 ± 4.6
C/C(=N\NC(=O)C1C(=O)NCC1c1ccccc1)c1cccc(Br)c1 (centres undefined)	-4.36 ± 3.2	-3.15 ± 3.1	-7.06 ± 11	-5.61 ± 0.55
CN(C)C(=O)C(CCN1CCC(O)(c2ccc(Cl)cc2)CC1)(c1ccccc1)c1ccccc1 [Loperamide hydrochloride]	-53.6 ± 47	-46.4 ± 2.8	-65.2 ± 7.9	-41.2 ± 2.2
Brc1c(NC2=NCCN2)ccc2nccnc12	-0.192 ± 2.3	-4.58 ± 12	0.712 ± 1	-4.48 ± 2.4
CN(Cc1cnc2nc(N)nc(N)c2n1)c1ccc(C(=O)N[C@@H](CCC(=O)O)C(=O)O)cc1 [Methotrexate]	-42.5 ± 36	-34.6 ± 3	-8.19 ± 3.7	-12.4 ± 1.3
CN(C)CCCn1cc(C2=C(c3c[nH]c4ccccc34)C(=O)NC2=O)c2ccccc21	-31.2 ± 14	-22.4 ± 5.5	-13.5 ± 1.1	-19.7 ± 8
Cc1cc(NC(=O)Nc2ccc(N(C)C)cc2)c2cc(F)cc(F)c2n1	-23.3 ± 16	-26.4 ± 16	-25.7 ± 21	-33.3 ± 5.7
CC(C1=C(CCN(C)C)Cc2ccccc21)c1ccccn1 (stereo in doubt) [(S)-(+)-Dimethindene maleate]	-17.7 ± 18	-1.6 ± 2.5	-1.4 ± 5.5	-8.11 ± 1.9
CC1(C)Oc2ccc(C#N)cc2[C@H](N2CCCC2=O)[C@H]1O [Cromakalim]	-28.4 ± 32	-21.6 ± 32	-6.03 ± 7.6	-5.63 ± 0.76
N=C(N)N/N=C/c1c(Cl)cccc1Cl [Guanabenz acetate]	-5.01 ± 0.8	-0.82 ± 2.2	-0.264 ± 2.8	-8.07 ± 1.3
N[C@H](C(=O)O)[C@H](OCc1ccccc1)C(=O)O (racemic)	-5.5 ± 1.1	-7.23 ± 2	-1.63 ± 0.36	-14.2 ± 3.1
N[C@@H]1CCN(O)C1=O	-1.89 ± 4.7	2.65 ± 1.2	0.472 ± 0.077	-6.02 ± 6.5
O=C(Nc1ccc(C(F)(F)F)cn1)N1CCN(c2ncccc2C(F)(F)F)CC1	-4.58 ± 2.5	-4.29 ± 1.5	-7.13 ± 11	-4.91 ± 0.18
c1ccc(N2CCN(CCCOc3ccc4c(c3)OCO4)CC2)cc1 [BP 554 maleate]	-13 ± 6.6	-8.05 ± 9.2	0.387 ± 0.5	-7.35 ± 2.5
N=C(N)SCCc1c[nH]cn1 [Imetit dihydrobromide]	-1.86 ± 1.5	-1.19 ± 2.5	1.37 ± 0.37	-7.78 ± 0.35
